The results in this text go back to PubChem BioAssay AID330 (DTP/NCI, 2004).

The list shows only some results of the screen, not a fair sample: it gathers tests that were run many times, whatever their T/C, doses with no T/C, and many T/C values between a quarter and a half above the control. Other doses and runs of a compound stand elsewhere. T/C is the treated group as % of the vehicle group. Some doses have a count of surviving animals in place of a T/C: the source holds a T/C of zero for them, seemingly a mark for toxic or unscored doses. Some survivor counts are full or nearly so, which does not show that the dose was tolerated: the source hardly ever lists a survival T/C far under the control, and the zero likely stands for such cases as well. Survivors were counted at the toxicity check, usually on the fifth day, unless a day is given; later deaths do not show. Schedules are NCI's codes, read here as Q, the interval in days (D) or hours (H), X, the number of doses. Counts like (3×) give the number of equal values in this list. For survival time, the PubChem record calls one and a half times the control and up active, and a quarter to a half above the control has no call in these data; cut-offs in other NCI protocols can differ. Some doses were run more than once; the results are listed from low to high.

In the assay the test system is P388 leukemia ip, CD2F1 mice, survival T/C. The assay can be described thus: NCI In Vivo Anticancer Drug Screen. Data for tumor model P388 Leukemia (intraperitoneal) in CD2F1 (CDF1) mice. The note with it: T/C endpoint: median survival time, higher T/C = longer survival.

`CC1(C)N=C(N)N=C(N)N1c1cccc(CCCCc2ccccc2)c1`: the survivor count reads like this: (dose: 12.5 mg/kg/injection, schedule: Q01DX009 (ip), vehicle: saline sonified) 1 of 6; (dose: 25.0 mg/kg/injection, schedule: Q01DX009 (ip), vehicle: saline sonified) 0 of 6; (dose: 25.0 mg/kg/injection, schedule: Q04DX003 (ip), vehicle: saline sonified) 4 of 6; (dose: 50.0 mg/kg/injection, schedule: Q01DX009 (ip), vehicle: saline sonified) 1 of 6; (dose: 100.0 mg/kg/injection, schedule: Q04DX003 (ip), vehicle: saline sonified) 2 of 6.
For the compound `Cc1c(O)c2c(c(O)c1Cc1cccc(C#N)c1)C(=O)c1ccccc1C2=O`, the survivor count runs as follows: (dose: 12.5 mg/kg/injection, schedule: Q01DX009 (ip), vehicle: other) 6 of 6; (dose: 50.0 mg/kg/injection, schedule: Q01DX009 (ip), vehicle: other) 6 of 6; (dose: 100.0 mg/kg/injection, schedule: Q01DX009 (ip), vehicle: other) 6 of 6; (dose: 200.0 mg/kg/injection, schedule: Q01DX009 (ip), vehicle: other) 6 of 6.
As to `OCC(O)CCBr` (centres undefined), the T/C (dose: 100.0 mg/kg/injection, schedule: Q01DX009 (ip), vehicle: saline with Tween-80) was 136 % of control. For the same compound, the survivor count by setting is: (dose: 200.0 mg/kg/injection, schedule: Q01DX009 (ip), vehicle: saline with Tween-80) 2 of 6; (dose: 400.0 mg/kg/injection, schedule: Q01DX009 (ip), vehicle: saline with Tween-80) 0 of 6 (2×); (dose: 600.0 mg/kg/injection, schedule: Q01DX009 (ip), vehicle: saline with Tween-80) 0 of 6.
As to `CN(C)c1ccc(/C=N/NC(N)=S)nc1`, the T/C reads like this: (dose: 66.0 mg/kg/injection, schedule: Q04DX003 (ip), vehicle: saline with Tween-80) 131 % of control; (dose: 100.0 mg/kg/injection, schedule: Q04DX003 (ip), vehicle: saline with Tween-80) 140 and 145 % of control. The survivor count is recorded as 2 of 6 (dose: 150.0 mg/kg/injection, schedule: Q04DX003 (ip), vehicle: saline with Tween-80) and 5 of 6 (dose: 200.0 mg/kg/injection, schedule: Q04DX003 (ip), vehicle: saline with Tween-80).
As for `CCCCCCCC[N+]1([O-])CCCCC1`, the survivor count (dose: 200.0 mg/kg/injection, schedule: Q01DX009 (ip), vehicle: saline) is listed as 0 of 6.
As to `CC1=CC(=O)C(O)C2(C)C1CC1OC(=O)CC3C(C)C(O)C4(O)OCC13C42` (centres undefined), for the setting “dose: 40.0 mg/kg/injection, schedule: Q01DX009 (ip), vehicle: Klucel (hydroxypropylcellulose) (HPC)”, the T/C was 145 % of control.
